Most of the hits are listed elsewhere, so they are rarer here than in the full data.
system: Escherichia coli K-12 BW25113; assay: relative growth (OD600 normalised to plate interquartile mean) (fraction); higher = less growth inhibition, active = 0.2 or less; details: 50 µM; LB; incubation time: overnight (16-24 h)
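Note: Wild-type cells incubated without shaking, value is the mean of two biological replicates.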

SMILES	relative growth
CCC(C)C(C(=O)OCC[N+](C)(CC)CC)c1ccccc1.[Br-] (stereo not given)	inactive: 0.857
CN1CCN(CCCN2c3ccccc3Sc3ccc(Cl)cc32)CC1.O=S(=O)(O)CCS(=O)(=O)O	inactive: 0.844
CCOc1cc(NC(C)=O)ccc1C(=O)OC	inactive: 1.14
Br.CN1C2CCC1CC(OC(=O)C(O)c1ccccc1)C2 (stereo not given)	inactive: 1.11
C[C@@H]1C[C@H](N)C[C@H](c2ccncc2NC(=O)c2ccc(F)c(-c3c(F)cccc3F)n2)C1	inactive: 0.974

Source: the supplement of paper PMC9446081
